Measurements published in publication PMC2861645.
No constants are given. Whether binding was seen depends on the method and setting. Binding seen in cells or lysates may run through a third protein. Some results given as binding are weak or reduced against the parent protein; the word gives no strength.

Amino acid sequences for entries named in this document (tags omitted). Residues count along the entry.
UniProt Q9UGN5: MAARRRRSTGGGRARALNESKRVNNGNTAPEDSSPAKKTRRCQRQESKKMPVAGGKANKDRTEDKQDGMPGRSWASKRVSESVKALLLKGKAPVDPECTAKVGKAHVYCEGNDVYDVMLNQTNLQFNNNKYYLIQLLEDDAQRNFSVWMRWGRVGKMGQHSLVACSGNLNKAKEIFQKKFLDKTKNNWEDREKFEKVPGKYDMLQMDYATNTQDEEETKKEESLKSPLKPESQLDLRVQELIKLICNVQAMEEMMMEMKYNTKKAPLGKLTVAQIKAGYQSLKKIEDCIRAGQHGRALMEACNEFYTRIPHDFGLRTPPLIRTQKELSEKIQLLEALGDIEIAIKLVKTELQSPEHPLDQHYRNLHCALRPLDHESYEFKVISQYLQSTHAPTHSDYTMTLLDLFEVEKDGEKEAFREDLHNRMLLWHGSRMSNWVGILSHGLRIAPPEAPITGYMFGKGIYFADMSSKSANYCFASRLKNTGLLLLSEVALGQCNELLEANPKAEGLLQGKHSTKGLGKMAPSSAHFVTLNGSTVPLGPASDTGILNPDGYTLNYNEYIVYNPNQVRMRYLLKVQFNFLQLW
UniProt P09874: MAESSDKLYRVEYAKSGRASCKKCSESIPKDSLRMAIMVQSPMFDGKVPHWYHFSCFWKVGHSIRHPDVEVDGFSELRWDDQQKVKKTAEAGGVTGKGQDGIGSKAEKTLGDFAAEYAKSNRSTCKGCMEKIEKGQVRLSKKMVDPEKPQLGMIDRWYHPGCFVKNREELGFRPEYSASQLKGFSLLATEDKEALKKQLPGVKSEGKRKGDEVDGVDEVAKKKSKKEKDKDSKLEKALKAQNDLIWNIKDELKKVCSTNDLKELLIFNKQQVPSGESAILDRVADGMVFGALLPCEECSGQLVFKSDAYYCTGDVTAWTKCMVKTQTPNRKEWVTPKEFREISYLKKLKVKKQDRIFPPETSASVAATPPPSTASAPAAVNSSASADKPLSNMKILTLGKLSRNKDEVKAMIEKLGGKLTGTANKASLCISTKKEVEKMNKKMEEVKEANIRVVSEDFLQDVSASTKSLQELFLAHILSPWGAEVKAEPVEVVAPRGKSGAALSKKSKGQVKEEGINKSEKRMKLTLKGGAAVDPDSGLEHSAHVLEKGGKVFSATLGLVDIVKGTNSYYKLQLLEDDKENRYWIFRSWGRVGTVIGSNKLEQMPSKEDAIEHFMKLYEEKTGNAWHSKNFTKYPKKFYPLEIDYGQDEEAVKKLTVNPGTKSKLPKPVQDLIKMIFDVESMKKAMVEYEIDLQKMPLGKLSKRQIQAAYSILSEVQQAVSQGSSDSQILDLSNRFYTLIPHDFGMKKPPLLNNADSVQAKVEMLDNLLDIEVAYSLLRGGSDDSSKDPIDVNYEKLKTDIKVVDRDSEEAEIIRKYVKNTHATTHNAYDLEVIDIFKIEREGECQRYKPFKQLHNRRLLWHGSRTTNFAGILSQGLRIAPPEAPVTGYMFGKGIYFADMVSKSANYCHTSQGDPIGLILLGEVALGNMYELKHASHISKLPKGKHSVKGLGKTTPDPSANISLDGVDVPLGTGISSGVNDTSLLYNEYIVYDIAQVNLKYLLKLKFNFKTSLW
UniProt P12956: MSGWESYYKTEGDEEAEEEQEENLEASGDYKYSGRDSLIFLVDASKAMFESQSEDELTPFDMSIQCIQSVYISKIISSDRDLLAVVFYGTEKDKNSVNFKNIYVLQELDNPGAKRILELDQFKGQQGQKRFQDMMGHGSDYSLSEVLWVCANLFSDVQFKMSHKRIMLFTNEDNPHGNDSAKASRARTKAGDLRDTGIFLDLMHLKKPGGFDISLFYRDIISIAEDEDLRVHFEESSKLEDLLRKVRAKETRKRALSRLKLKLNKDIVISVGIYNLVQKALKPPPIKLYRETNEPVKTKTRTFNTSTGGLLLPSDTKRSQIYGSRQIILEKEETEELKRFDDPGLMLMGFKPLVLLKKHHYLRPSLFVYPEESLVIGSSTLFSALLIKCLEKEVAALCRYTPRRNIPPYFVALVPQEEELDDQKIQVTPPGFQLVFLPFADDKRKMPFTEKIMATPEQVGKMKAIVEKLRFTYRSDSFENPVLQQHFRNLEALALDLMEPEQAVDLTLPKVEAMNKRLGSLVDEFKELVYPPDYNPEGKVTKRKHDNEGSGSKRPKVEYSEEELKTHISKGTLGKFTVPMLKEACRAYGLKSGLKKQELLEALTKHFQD
UniProt P13010: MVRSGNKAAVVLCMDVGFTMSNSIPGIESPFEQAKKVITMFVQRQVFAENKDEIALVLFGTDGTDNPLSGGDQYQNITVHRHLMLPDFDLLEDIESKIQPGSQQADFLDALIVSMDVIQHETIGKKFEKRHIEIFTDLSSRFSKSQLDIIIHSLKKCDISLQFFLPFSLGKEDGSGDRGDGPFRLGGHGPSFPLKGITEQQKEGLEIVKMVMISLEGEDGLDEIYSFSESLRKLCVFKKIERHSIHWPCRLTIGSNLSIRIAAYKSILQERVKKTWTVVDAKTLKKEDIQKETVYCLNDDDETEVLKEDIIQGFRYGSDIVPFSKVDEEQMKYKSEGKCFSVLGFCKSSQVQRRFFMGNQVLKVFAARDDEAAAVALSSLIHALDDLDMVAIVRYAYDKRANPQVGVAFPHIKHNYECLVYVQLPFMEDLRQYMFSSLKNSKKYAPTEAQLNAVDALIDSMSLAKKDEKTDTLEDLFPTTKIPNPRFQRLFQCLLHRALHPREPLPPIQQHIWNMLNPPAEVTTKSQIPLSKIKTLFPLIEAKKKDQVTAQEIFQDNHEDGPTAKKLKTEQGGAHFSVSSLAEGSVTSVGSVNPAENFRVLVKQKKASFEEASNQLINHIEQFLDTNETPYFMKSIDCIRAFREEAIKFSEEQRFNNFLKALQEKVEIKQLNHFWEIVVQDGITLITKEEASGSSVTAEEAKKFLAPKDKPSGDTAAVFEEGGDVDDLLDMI
UniProt O95831, residues 102-613: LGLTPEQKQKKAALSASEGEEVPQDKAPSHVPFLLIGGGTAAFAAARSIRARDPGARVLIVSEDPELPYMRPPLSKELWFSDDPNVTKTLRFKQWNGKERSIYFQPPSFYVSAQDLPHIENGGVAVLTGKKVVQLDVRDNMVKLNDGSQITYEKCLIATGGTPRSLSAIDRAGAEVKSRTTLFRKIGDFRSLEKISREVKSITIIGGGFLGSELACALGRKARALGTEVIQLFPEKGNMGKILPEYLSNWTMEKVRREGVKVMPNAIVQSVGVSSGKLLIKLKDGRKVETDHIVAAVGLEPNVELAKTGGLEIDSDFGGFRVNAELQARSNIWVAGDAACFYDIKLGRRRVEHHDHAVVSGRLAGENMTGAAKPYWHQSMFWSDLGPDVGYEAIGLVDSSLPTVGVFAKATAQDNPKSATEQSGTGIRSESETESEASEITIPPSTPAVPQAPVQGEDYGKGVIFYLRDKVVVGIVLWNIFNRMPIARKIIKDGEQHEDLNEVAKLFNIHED
UniProt Q9NYF8: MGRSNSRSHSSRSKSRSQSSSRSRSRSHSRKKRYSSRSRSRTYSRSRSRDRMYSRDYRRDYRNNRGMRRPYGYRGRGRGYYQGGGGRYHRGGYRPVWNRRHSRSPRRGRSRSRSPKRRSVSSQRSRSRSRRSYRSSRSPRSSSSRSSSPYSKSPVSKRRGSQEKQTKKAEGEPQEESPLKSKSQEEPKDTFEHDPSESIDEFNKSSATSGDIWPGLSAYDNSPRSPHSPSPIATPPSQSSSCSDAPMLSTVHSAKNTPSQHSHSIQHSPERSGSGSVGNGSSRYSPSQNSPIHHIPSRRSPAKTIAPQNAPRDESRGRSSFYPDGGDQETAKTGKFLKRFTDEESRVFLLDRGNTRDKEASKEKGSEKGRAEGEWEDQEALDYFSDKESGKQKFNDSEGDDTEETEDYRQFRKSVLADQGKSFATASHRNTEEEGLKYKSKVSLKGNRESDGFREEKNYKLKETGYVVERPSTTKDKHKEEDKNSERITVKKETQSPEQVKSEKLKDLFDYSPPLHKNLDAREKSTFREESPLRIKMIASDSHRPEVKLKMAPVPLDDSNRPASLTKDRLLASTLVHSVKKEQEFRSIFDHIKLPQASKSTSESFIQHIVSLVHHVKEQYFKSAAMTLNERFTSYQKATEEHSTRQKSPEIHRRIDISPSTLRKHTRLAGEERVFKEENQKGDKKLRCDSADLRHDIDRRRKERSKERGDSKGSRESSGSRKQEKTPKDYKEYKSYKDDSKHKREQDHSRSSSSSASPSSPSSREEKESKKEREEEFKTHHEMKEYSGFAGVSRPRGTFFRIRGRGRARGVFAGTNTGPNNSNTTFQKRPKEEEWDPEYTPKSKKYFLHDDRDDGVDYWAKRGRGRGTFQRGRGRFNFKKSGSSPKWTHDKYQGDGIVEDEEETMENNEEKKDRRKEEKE
UniProt P19838, residues 1-433: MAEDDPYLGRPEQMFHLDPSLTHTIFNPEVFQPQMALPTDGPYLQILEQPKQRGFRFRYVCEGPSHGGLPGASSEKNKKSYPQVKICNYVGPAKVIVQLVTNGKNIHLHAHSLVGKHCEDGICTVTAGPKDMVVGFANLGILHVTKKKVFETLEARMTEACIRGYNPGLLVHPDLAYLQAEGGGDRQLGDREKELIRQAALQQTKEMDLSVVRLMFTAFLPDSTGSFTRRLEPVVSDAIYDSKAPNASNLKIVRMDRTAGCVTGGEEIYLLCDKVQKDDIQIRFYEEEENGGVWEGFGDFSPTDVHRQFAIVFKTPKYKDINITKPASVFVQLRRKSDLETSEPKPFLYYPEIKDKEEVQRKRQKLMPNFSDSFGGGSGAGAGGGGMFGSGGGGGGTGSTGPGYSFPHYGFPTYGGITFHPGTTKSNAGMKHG
UniProt P42224: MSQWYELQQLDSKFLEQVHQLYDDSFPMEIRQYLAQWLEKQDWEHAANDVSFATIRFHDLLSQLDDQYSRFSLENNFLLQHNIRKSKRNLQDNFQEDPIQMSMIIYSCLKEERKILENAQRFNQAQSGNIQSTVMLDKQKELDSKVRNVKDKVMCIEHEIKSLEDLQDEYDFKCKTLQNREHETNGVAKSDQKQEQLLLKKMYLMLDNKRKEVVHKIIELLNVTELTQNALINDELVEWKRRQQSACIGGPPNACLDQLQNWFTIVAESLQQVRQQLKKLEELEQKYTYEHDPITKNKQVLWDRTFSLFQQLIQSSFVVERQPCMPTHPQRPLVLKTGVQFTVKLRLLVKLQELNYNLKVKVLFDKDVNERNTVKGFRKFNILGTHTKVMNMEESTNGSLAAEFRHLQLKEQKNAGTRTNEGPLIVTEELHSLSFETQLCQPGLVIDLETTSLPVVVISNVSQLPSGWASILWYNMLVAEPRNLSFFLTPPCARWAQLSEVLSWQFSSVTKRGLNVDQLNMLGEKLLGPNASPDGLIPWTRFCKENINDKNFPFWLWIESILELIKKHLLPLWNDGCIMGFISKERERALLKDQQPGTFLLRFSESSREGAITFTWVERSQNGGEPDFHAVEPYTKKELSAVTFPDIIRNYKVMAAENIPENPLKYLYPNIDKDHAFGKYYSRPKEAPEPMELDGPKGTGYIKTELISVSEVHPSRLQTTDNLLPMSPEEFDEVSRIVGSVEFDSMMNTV

What was measured:
[1] = biological target: FLAG-PARP-2 (UniProt Q9UGN5); test: co-IP; FLAG-PARP-2 immunoprecipitated from whole cellular extract with anti-FLAG M2 on protein G magnetic beads; control normal mouse IgG; partners detected by western blot
[2] = biological target: Poly(ADP-ribose) polymerase 1 (PARP-1) (human (endogenous in SK-N-SH or HeLa)) (UniProt P09874); test: co-IP; PARP-1 immunoprecipitated from whole cellular extract with F1-23 on protein G magnetic beads; control normal mouse IgG; partners detected by western blot
[3] = biological target: Poly(ADP-ribose) polymerase 1 (PARP-1) (human (endogenous in SK-N-SH or HeLa)) (UniProt P09874); test: co-IP; data not shown: PARP-1 immunoprecipitates probed by western blot; control immunoprecipitate beside it
[4] = biological target: FLAG-PARP-2 (UniProt Q9UGN5); test: co-IP; data not shown: FLAG-PARP-2 immunoprecipitate probed by western blot for PARP-1; control immunoprecipitate beside it

ATP-dependent DNA helicase II 70 kDa subunit (from UniProt P12956 1-609)
binding [1]: binds

ATP-dependent DNA helicase II 80 kDa subunit (from UniProt P13010 1-732)
binding [1]: binds

Apoptosis-inducing factor (from UniProt O95831 102-613)
binding [2]: binds weakly | binding [1]: binds

Bcl-2-associated transcription factor 1 (from UniProt Q9NYF8 1-920)
binding [2]: binds | binding [1]: binds

Nuclear factor kappa B subunit p50 (from UniProt P19838 1-433)
binding [3]: binds

Poly(ADP-ribose) polymerase 1 (PARP-1) (from UniProt P09874 1-1014) (enzyme)
binding [4]: binds

Signal transducer and activator of transcription 1-alpha/beta (from UniProt P42224 1-750)
binding [1]: binds

B1: Replication factor C subunit 1 (protein, UniProt P35251 1-1148)
chain: MDIRKFFGVIPSGKKLVSETVKKNEKTKSDEETLKAKKGIKEIKVNSSRKEDDFKQKQPSKKKRIIYDSDSESEETLQVKNAKKPPEKLPVSSKPGKISRQDPVTYISETDEEDDFMCKKAASKSKENGRSTNSHLGTSNMKKNEENTKTKNKPLSPIKLTPTSVLDYFGTGSVQRSNKKMVASKRKELSQNTDESGLNDEAIAKQLQLDEDAELERQLHEDEEFARTLAMLDEEPKTKKARKDTEAGETFSSVQANLSKAEKHKYPHKVKTAQVSDERKSYSPRKQSKYESSKESQQHSKSSADKIGEVSSPKASSKLAIMKRKEESSYKEIEPVASKRKENAIKLKGETKTPKKTKSSPAKKESVSPEDSEKKRTNYQAYRSYLNREGPKALGSKEIPKGAENCLEGLIFVITGVLESIERDEAKSLIERYGGKVTGNVSKKTNYLVMGRDSGQSKSDKAAALGTKIIDEDGLLNLIRTMPGKKSKYEIAVETEMKKESKLERTPQKNVQGKRKISPSKKESESKKSRPTSKRDSLAKTIKKETDVFWKSLDFKEQVAEETSGDSKARNLADDSSENKVENLLWVDKYKPTSLKTIIGQQGDQSCANKLLRWLRNWQKSSSEDKKHAAKFGKFSGKDDGSSFKAALLSGPPGVGKTTTASLVCQELGYSYVELNASDTRSKSSLKAIVAESLNNTSIKGFYSNGAASSVSTKHALIMDEVDGMAGNEDRGGIQELIGLIKHTKIPIICMCNDRNHPKIRSLVHYCFDLRFQRPRVEQIKGAMMSIAFKEGLKIPPPAMNEIILGANQDIRQVLHNLSMWCARSKALTYDQAKADSHRAKKDIKMGPFDVARKVFAAGEETAHMSLVDKSDLFFHDYSIAPLFVQENYIHVKPVAAGGDMKKHLMLLSRAADSICDGDLVDSQIRSKQNWSLLPAQAIYASVLPGELMRGYMTQFPTFPSWLGKHSSTGKHDRIVQDLALHMSLRTYSSKRTVNMDYLSLLRDALVQPLTSQGVDGVQDVVALMDTYYLMKEDFENIMEISSWGGKPSPFSKLDPKVKAAFTRAYNKEAHLTPYSLQAIKASRHSTSPSLDSEYNEELNEDDSQSDEKDQDAIETDAMIKKKTKSSKPSKPEKDKEPRKGKGKSSKK
binding [3]: binds
